Reference: the supplement of paper PMC10849652
The list shows a part of the results.

Sequences of proteins named here, by UniProt entry; tags and fusion partners are left off. A change or cut given only in a name is not applied to a line headed by its entry.
UniProt Q96NW4, whole entry, looked up: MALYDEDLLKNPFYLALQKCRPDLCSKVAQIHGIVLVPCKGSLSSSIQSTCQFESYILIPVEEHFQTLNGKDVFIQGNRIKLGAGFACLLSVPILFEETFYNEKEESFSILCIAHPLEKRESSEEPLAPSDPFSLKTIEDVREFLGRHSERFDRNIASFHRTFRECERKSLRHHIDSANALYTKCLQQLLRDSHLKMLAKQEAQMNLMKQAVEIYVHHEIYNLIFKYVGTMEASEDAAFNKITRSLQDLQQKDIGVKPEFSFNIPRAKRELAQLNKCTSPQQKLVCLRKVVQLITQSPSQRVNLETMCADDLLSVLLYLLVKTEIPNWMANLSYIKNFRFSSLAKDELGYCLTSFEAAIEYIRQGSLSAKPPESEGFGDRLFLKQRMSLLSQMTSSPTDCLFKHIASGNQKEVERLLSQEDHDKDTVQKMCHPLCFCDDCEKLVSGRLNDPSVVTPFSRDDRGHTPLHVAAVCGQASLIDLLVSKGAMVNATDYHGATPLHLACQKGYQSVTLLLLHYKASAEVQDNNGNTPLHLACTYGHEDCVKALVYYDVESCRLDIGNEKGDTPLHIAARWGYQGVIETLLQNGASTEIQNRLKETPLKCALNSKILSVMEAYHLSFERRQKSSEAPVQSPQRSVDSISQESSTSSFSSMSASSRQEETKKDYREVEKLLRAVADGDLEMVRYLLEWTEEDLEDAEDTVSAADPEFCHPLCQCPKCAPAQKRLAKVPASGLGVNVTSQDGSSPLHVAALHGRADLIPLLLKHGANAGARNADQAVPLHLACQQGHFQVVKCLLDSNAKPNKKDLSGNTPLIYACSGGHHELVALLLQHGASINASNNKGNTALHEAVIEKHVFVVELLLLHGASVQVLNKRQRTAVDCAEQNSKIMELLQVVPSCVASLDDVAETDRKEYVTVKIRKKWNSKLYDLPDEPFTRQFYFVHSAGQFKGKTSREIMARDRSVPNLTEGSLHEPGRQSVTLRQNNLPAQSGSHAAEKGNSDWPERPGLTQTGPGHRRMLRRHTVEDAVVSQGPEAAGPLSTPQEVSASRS
UniProt Q9UPM8: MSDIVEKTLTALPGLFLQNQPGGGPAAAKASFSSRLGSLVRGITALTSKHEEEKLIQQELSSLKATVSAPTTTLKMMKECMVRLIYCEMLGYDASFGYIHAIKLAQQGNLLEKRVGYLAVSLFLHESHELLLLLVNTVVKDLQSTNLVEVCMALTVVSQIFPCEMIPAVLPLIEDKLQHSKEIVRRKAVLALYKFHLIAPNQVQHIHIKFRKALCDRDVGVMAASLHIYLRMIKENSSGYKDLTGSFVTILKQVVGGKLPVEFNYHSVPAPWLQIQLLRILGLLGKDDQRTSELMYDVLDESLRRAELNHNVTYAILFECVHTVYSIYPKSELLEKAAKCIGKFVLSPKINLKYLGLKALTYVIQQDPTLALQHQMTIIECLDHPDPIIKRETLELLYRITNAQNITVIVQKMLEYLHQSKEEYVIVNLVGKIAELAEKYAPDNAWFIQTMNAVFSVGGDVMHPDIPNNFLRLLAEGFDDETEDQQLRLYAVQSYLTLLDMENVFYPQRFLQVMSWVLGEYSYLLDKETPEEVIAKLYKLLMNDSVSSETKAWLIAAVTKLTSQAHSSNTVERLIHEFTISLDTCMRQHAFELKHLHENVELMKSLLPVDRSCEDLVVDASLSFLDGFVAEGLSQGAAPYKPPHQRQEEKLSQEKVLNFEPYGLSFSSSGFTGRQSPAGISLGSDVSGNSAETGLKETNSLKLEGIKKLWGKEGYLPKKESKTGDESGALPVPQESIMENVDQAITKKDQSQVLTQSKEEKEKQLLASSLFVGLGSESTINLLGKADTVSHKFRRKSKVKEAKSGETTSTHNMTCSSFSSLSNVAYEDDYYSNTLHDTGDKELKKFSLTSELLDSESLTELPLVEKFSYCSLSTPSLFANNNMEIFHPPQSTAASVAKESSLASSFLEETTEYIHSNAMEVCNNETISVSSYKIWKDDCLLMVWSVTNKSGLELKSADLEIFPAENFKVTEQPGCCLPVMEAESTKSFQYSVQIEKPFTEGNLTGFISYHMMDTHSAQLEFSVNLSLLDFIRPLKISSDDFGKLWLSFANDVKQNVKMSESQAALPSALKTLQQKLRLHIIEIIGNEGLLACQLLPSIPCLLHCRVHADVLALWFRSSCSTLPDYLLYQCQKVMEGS
UniProt Q9Y673: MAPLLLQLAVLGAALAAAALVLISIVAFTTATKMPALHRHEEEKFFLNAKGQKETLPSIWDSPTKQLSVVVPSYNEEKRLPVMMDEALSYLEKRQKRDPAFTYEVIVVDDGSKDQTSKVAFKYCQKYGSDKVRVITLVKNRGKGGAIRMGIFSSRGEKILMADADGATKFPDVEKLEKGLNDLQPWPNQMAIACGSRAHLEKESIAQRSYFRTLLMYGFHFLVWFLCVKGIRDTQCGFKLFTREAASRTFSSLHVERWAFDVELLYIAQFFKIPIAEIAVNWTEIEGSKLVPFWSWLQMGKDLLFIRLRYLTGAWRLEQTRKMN
UniProt Q9H1A4, whole entry, looked up: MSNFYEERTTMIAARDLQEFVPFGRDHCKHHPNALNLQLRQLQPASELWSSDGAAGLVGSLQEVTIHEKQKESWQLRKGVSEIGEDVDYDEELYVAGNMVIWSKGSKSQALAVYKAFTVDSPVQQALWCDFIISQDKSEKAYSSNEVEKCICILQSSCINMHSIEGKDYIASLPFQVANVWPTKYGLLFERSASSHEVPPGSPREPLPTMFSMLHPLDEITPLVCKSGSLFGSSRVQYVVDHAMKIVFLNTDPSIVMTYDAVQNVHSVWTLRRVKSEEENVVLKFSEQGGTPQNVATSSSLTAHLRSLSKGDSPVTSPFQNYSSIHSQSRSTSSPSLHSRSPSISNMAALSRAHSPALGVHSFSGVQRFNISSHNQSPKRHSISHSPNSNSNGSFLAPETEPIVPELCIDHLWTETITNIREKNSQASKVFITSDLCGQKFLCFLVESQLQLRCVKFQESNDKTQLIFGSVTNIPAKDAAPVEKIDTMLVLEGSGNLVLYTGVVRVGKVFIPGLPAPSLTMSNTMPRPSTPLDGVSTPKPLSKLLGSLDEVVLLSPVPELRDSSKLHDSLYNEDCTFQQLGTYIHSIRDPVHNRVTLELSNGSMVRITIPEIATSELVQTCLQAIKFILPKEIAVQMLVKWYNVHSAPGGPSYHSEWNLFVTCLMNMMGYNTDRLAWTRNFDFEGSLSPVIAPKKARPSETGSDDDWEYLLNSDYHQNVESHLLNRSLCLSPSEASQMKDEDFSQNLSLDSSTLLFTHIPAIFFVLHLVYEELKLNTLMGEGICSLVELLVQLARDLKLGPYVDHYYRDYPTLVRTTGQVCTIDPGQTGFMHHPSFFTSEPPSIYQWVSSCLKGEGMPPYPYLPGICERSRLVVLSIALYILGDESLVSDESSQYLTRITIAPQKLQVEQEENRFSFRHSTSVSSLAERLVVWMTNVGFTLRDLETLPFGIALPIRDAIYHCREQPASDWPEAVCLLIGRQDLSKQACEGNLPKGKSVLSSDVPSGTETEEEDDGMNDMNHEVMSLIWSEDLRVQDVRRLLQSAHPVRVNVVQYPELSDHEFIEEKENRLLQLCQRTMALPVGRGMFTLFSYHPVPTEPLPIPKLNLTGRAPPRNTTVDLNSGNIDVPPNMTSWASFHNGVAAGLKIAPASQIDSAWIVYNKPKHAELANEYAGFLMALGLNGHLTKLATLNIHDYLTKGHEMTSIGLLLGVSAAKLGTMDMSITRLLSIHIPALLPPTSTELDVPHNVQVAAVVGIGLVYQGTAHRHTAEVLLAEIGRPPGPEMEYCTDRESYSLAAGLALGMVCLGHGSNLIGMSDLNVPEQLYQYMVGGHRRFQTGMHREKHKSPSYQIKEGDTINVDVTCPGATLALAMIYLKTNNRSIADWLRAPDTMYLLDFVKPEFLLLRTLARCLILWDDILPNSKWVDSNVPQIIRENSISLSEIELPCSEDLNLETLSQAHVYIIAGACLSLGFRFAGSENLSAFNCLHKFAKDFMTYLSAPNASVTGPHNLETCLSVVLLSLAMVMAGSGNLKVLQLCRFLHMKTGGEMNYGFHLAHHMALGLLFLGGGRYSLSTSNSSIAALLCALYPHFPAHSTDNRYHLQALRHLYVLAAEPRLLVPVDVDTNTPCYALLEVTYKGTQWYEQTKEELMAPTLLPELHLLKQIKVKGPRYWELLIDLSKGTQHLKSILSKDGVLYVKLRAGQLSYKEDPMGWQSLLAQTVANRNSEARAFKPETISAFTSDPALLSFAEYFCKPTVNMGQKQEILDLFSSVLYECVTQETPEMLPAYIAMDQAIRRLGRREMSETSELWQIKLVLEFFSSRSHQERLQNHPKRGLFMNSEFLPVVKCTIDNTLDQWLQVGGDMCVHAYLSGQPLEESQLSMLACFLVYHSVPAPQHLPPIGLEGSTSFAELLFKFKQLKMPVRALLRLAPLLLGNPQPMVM
UniProt Q96Q83: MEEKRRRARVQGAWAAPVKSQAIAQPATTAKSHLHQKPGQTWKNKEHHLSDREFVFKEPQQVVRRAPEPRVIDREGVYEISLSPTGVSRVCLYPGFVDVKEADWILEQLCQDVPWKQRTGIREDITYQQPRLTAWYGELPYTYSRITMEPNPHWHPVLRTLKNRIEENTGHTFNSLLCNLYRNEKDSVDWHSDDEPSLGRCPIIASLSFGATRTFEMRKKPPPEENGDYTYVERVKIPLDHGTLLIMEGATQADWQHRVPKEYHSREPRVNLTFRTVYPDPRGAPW
UniProt Q9H6U8: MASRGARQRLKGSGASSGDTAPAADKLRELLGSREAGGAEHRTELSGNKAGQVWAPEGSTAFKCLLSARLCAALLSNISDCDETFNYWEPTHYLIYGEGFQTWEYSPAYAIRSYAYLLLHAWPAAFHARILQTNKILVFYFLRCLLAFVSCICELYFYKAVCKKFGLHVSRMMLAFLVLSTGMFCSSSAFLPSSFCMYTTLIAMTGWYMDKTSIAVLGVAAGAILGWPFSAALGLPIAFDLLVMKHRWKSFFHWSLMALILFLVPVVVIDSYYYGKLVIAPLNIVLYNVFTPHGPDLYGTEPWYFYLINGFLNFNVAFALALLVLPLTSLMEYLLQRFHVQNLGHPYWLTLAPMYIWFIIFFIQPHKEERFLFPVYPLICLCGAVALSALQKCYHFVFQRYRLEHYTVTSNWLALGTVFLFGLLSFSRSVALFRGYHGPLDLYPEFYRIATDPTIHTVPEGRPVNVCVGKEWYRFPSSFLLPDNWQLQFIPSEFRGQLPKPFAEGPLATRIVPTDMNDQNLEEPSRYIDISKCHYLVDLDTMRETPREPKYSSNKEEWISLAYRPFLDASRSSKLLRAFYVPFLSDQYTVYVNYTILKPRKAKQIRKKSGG
UniProt Q96CW1: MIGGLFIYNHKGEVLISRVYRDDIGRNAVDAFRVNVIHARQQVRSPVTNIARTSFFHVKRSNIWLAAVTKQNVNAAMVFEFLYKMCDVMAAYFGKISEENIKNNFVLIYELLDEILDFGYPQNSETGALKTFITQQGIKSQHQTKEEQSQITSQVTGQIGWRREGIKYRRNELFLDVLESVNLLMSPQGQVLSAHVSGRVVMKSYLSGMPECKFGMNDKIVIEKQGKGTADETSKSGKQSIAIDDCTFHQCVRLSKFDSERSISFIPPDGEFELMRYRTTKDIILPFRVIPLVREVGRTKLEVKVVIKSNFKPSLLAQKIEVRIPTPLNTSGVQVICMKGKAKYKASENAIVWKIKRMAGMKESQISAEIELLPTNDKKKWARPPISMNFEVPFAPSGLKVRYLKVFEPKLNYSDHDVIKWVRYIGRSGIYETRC
UniProt P07355, whole entry, looked up: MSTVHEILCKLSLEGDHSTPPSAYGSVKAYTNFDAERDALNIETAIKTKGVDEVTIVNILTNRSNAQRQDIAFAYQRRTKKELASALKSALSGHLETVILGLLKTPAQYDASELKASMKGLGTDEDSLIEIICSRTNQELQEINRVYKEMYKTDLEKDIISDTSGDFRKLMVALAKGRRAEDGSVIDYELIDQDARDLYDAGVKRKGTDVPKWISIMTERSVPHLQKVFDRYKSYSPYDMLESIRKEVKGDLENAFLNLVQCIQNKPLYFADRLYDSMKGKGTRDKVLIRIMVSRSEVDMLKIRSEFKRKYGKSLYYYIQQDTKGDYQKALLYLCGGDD
UniProt O00189: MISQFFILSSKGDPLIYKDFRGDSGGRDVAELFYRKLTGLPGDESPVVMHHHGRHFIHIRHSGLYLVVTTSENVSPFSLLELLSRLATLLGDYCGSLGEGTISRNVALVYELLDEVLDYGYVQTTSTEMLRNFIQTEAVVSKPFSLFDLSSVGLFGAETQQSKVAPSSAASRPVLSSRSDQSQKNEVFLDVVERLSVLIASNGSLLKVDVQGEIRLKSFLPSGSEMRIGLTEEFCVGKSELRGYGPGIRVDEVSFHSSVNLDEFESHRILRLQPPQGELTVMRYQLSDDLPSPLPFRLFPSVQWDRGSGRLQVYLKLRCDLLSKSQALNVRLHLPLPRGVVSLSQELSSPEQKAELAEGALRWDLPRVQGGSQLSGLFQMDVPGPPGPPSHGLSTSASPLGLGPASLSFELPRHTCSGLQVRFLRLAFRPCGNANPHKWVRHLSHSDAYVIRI

How the values were obtained:
Assay in all cases: log2 fold change, soluble protein after heating vs DMSO (PISA); higher = thermal stabilisation; K562 lysate, 10 uM; active = over 0.2 and 3.5 SD of the protein, either way, in both replicates (recomputed)
[1] = compound: CN1CC[C@H](c2c(O)cc(O)c3c(=O)cc(-c4ccccc4Cl)oc23)[C@H](O)C1 [alvocidib]
Summary of the method: (§1)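 Values give the log-two fold change in thermal stability against solvent controls, from duplicates. Crude K562 extract at 1 mg/mL protein, made by dounce homogenisation in PBS pH 7.4 with 1 mM MgCl2, was treated with 10 μM compound for 30 min. After 3 min heating across 48°C-58°C, aliquots were pooled, adjusted to 0.5% NP-40 at 4°C and centrifuged at 21,000xg for 90 min. The supernatant was measured by TMTpro 16plex LC-MS/MS with channel sums equalised.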

[2] = compound: CN1CCc2c(c3ccccc3n2Cc2ccc(C(=O)NO)cc2)C1 [Tubastatin A]
Summary of the method: as §1

[3] = compound: CNC(=O)C1=CC=CC=C1NC2=NC(=NC=C2Cl)NC3=C(C=C(C=C3)N4CCOCC4)OC
Summary of the method: as §1

[4] = compound: CNC(=O)c1ccc(Nc2ncc(C(F)(F)F)c(NCc3nccnc3N(C)S(C)(=O)=O)n2)cc1 [defactinib]
Summary of the method: as §1

[5] = compound: CNc1nc(-c2ccc3c(N)n[nH]c3c2)cc(N2C[C@@H](C(=O)NC3CCCCC3)CC[C@H]2C)n1
Summary of the method: as §1

[6] = compound: COC(=O)N[C@@H](C)CNc1nccc(-c2cn(C(C)C)nc2-c2cc(Cl)cc(NS(C)(=O)=O)c2F)n1 [encorafenib]
Summary of the method: as §1

[7] = compound: COC(=O)[C@H](CCSC)NC(=O)C1=C(C=C(C=C1)NC[C@H](CS)N)C2=CC=CC=C2
Summary of the method: as §1

[8] = compound: COc1cc(Nc2ncc3c(n2)-c2ccc(Cl)cc2C(c2c(F)cccc2OC)=NC3)ccc1C(=O)O [alisertib]
Summary of the method: as §1

[9] = compound: COc1cc2nc(-c3cc(F)ccc3O)nc(N[C@@H]3CNC[C@H]3C(C)(C)O)c2cc1OC
Summary of the method: as §1

[10] = compound: COc1cc2ncnc(Nc3ccc(F)c(Cl)c3)c2cc1OCCCN1CCOCC1 [gefitinib]
Summary of the method: as §1

[11] = compound: CS(=O)(=O)CCNCc1ccc(-c2ccc3ncnc(Nc4ccc(OCc5cccc(F)c5)c(Cl)c4)c3c2)o1 [lapatinib]
Summary of the method: as §1

[12] = compound: CS(=O)(=O)N1CCN(Cc2cc3nc(-c4cccc5[nH]ncc45)nc(N4CCOCC4)c3s2)CC1 [pictilisib]
Summary of the method: as §1

[13] = compound: C[C@@H](Oc1cc(-c2cnn(C3CCNCC3)c2)cnc1N)c1c(Cl)ccc(F)c1Cl [crizotinib]
Summary of the method: as §1

[14] = compound: C[C@H](C1=CC=C(C=C1)C(=O)NC2=C3C=CNC3=NC=C2)N
Summary of the method: as §1

[15] = compound: C[C@H](Nc1ncnc2nc[nH]c12)c1cc2cccc(Cl)c2c(=O)n1-c1ccccc1 [duvelisib]
Summary of the method: as §1

[16] = compound: Cc1cc(Nc2cc(CN3CCOCC3)c3nc(C)c(Cc4ccc(Cl)cc4F)n3n2)n[nH]1 [gandotinib]
Summary of the method: as §1

[17] = compound: Cc1cc(Nc2cc(N3CCN(C)CC3)nc(Sc3ccc(NC(=O)C4CC4)cc3)n2)n[nH]1 [tozasertib]
Summary of the method: as §1

[18] = compound: Cc1ccc(-n2nc(C(C)(C)C)cc2NC(=O)Nc2ccc(OCCN3CCOCC3)c3ccccc23)cc1 [doramapimod]
Summary of the method: as §1

[19] = compound: Cc1ccc(NC(=O)c2ccc(CN3CC[C@H](N(C)C)C3)c(C(F)(F)F)c2)cc1Nc1nccc(-c2cncnc2)n1 [bafetinib]
Summary of the method: as §1

[20] = compound: Cc1cccc(CC(=O)N2CCc3c2ccc(-c2cn(C)c4ncnc(N)c24)c3F)n1
Summary of the method: as §1

Measured: log2 fold change

ANKRD27 (UniProt Q96NW4)
inactive: [1] -0.056 | [2] -0.118 | [3] 0.046 | [4] 0.035 | [5] 0.003 | [6] -0.007 | [7] 0.103 | [8] -0.053 | [9] -0.087 | [10] 0.03 | [11] 0.025 | [12] -0.026 | [13] -0.095 | [14] -0.03 | [15] -0.025 | [16] 0.049 | [17] 0.002 | [18] -0.009 | [19] -0.059 | [20] 0.022

ANXA5 (UniProt P08758)
inactive: [1] 0.04 | [2] 0 | [3] -0.023 | [4] -0.002 | [5] -0.067 | [6] -0.016 | [7] 0.049 | [8] 0.052 | [9] -0.009 | [10] 0.049 | [11] 0.005 | [12] -0.009 | [13] 0.046 | [14] 0.059 | [15] -0.028 | [16] -0.119 | [17] 0.019 | [18] 0.015 | [19] -0.018 | [20] -0.065

ALKBH5 (UniProt Q6P6C2)
inactive: [1] -0.006 | [2] 0.121 | [3] -0.023 | [4] -0.038 | [5] 0.105 | [6] -0.068 | [7] 0.073 | [8] 0.025 | [9] 0.092 | [10] -0.032 | [11] -0.13 | [12] -0.074 | [13] 0.012 | [14] -0.055 | [15] -0.056 | [16] 0.204 | [17] -0.036 | [18] -0.088 | [19] 0.023 | [20] 0.155

AP4E1 (UniProt Q9UPM8)
inactive: [1] -0.029 | [2] -0.081 | [3] -0.007 | [4] 0.077 | [5] -0.005 | [6] 0.055 | [7] -0.023 | [8] 0.011 | [9] -0.007 | [10] -0.033 | [11] 0.034 | [12] -0.104 | [13] -0.043 | [14] -0.055 | [15] 0.03 | [16] 0.008 | [17] 0.022 | [18] -0.005 | [19] -0.039 | [20] 0.122

ANKMY2 (UniProt Q8IV38)
inactive: [1] 0.047 | [2] -0.009 | [3] 0.023 | [4] 0.015 | [5] 0.028 | [6] -0.005 | [7] 0.066 | [8] -0.004 | [9] -0.005 | [10] -0.027 | [11] 0.001 | [12] -0.032 | [13] -0.001 | [14] 0.113 | [15] -0.007 | [16] -0.123 | [17] 0.002 | [18] -0.003 | [19] -0.007 | [20] -0.092

ALG5 (UniProt Q9Y673)
inactive: [1] -0.012 | [2] 0.084 | [3] -0.048 | [4] -0.018 | [5] -0.001 | [6] 0.031 | [7] 0.004 | [8] -0.01 | [9] 0.042 | [10] 0.075 | [11] 0.025 | [12] 0.007 | [13] 0.003 | [14] -0.069 | [15] -0.001 | [16] 0.011 | [17] 0.033 | [18] 0.014 | [19] 0.005 | [20] 0.02

ANAPC1 (UniProt Q9H1A4)
inactive: [1] -0.007 | [2] -0.081 | [3] 0.02 | [4] -0.011 | [5] 0.014 | [6] 0.055 | [7] -0.042 | [8] 0.005 | [9] 0.012 | [10] 0 | [11] -0.017 | [12] -0.016 | [13] -0.045 | [14] -0.053 | [15] 0.005 | [16] -0.001 | [17] -0.008 | [18] 0.021 | [19] -0.041 | [20] 0.07

ANXA4 (UniProt P09525)
inactive: [1] 0.017 | [2] 0.024 | [3] -0.015 | [4] -0.013 | [5] -0.043 | [6] 0.006 | [7] 0.046 | [8] 0.024 | [9] 0.003 | [10] 0.019 | [11] -0.011 | [12] -0.009 | [13] -0.015 | [14] -0.018 | [15] -0.045 | [16] -0.005 | [17] 0.064 | [18] 0.016 | [19] -0.021 | [20] 0.015

ALKBH3 (UniProt Q96Q83)
inactive: [1] -0.006 | [2] 0.023 | [3] 0.022 | [4] -0.029 | [5] 0.005 | [6] -0.047 | [7] 0.007 | [8] 0.129 | [9] -0.141 | [10] -0.099 | [11] -0.025 | [12] -0.022 | [13] 0.018 | [14] 0.089 | [15] 0.004 | [16] -0.059 | [17] 0.066 | [18] -0.03 | [19] -0.076 | [20] -0.021

ALG9 isoform 3 (UniProt Q9H6U8)
inactive: [1] -0.063 | [2] -0.022 | [3] -0.055 | [4] -0.008 | [5] 0.009 | [6] -0.008 | [7] 0.032 | [8] 0.012 | [9] 0.019 | [10] -0.041 | [11] -0.036 | [12] -0.075 | [13] 0.031 | [14] -0.008 | [15] 0.004 | [16] -0.001 | [17] 0.032 | [18] -0.1 | [19] -0.047 | [20] 0.027

2 records picked at random from those above, as already listed:
ALG5 (UniProt Q9Y673)
inactive: [1] -0.012 | [2] 0.084 | [3] -0.048 | [4] -0.018 | [5] -0.001 | [6] 0.031 | [7] 0.004 | [8] -0.01 | [9] 0.042 | [10] 0.075 | [11] 0.025 | [12] 0.007 | [13] 0.003 | [14] -0.069 | [15] -0.001 | [16] 0.011 | [17] 0.033 | [18] 0.014 | [19] 0.005 | [20] 0.02

ANXA4 (UniProt P09525)
inactive: [1] 0.017 | [2] 0.024 | [3] -0.015 | [4] -0.013 | [5] -0.043 | [6] 0.006 | [7] 0.046 | [8] 0.024 | [9] 0.003 | [10] 0.019 | [11] -0.011 | [12] -0.009 | [13] -0.015 | [14] -0.018 | [15] -0.045 | [16] -0.005 | [17] 0.064 | [18] 0.016 | [19] -0.021 | [20] 0.015

More records follow:

ALKBH1 (UniProt Q13686)
inactive: [1] 0.003 | [2] -0.018 | [3] -0.113 | [4] -0.008 | [5] 0.027 | [6] -0.016 | [7] 0.073 | [8] -0.044 | [10] -0.07 | [14] -0.016 | [15] 0.014 | [16] 0 | [17] 0.09 | [20] 0.048

AP2M1 (UniProt Q96CW1)
inactive: [1] 0.011 | [2] -0.013 | [3] 0.021 | [4] -0.003 | [5] -0.009 | [6] -0.01 | [7] -0.036 | [8] -0.03 | [9] -0.015 | [10] -0.018 | [11] 0.001 | [12] -0.001 | [13] -0.014 | [14] -0.112 | [15] 0.04 | [16] 0.124 | [17] 0.02 | [18] 0.032 | [19] 0.024 | [20] -0.002

ALG6 (UniProt Q9Y672)
inactive: [1] -0.043 | [2] 0.059 | [3] 0.034 | [4] 0.034 | [5] 0.131 | [6] 0.091 | [7] -0.044 | [8] -0.003 | [9] 0.032 | [10] -0.052 | [11] -0.049 | [12] -0.004 | [13] -0.04 | [14] -0.105 | [15] 0.045 | [16] -0.005 | [17] -0.003 | [18] -0.016 | [19] -0.05 | [20] 0.093

ANXA2 isoform 2 (UniProt P07355)
inactive: [1] 0.012 | [2] 0.013 | [3] -0.012 | [4] -0.011 | [5] -0.026 | [6] -0.03 | [7] -0.007 | [8] 0.002 | [9] 0.003 | [10] -0.009 | [11] 0.009 | [12] -0.005 | [13] 0.029 | [14] 0.017 | [15] -0.028 | [16] 0.008 | [17] -0.001 | [18] -0.024 | [19] 0.065 | [20] -0.041

ANKRD13A (UniProt Q8IZ07)
inactive: [1] 0.011 | [2] -0.047 | [3] -0.003 | [4] 0.047 | [5] 0.01 | [6] 0.025 | [7] -0.009 | [8] -0.039 | [9] -0.012 | [10] 0.001 | [11] 0.017 | [12] -0.071 | [13] -0.031 | [14] -0.04 | [15] -0.022 | [16] -0.015 | [17] -0.009 | [18] 0.028 | [19] -0.01 | [20] 0.016

AP4M1 (UniProt O00189)
inactive: [1] 0.003 | [2] -0.032 | [3] -0.015 | [4] 0.107 | [5] -0.046 | [6] -0.092 | [7] -0.209 | [8] -0.016 | [10] -0.065 | [12] 0.007 | [13] -0.068 | [14] -0.015 | [15] 0.117 | [16] -0.044 | [17] 0.044 | [18] 0.045 | [19] -0.026 | [20] -0.009
